Experimental data: PubChem BioAssay AID1508588 (Peter MacCallum Cancer Centre, 2020)

Screen: 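Genome-wide search for knock-downs that heighten vemurafenib action in melanoma cells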 (primary screen)
System: human WM266.4 melanoma cells (BRAF V600 mutant)
Knock-down reagent: siRNA pool against human genes, 40 nM
Duration: 96 h from transfection to read-out
Treatment: vemurafenib 300 nM (about IC25), added 48 h after transfection, for 48 h; comparison arm got DMSO vehicle only
Measured: 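Ratios to non-targeting siRNA for cell gain, counted as DAPI nuclei after minus before drug and averaged over two replicates, and for absorbance-read medium lactate per cell; both binned into fold-change classes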
Direction: cell gain with vemurafenib: higher = more cell gain than with non-targeting siRNA; lactate per cell with vemurafenib: higher = more lactate made per cell
Active means: 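Enhancement is called by pairing each knock-down's vehicle-arm and drug-arm fold-change classes for viability or glycolysis; which class combinations qualify is not given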
Calls: active = enhances vemurafenib effect; inactive = no enhancement seen
In all, the deposit lists about 18,000 reagents; below is an unselected part. Of all reagents, 790 (4.4%) got an active call. 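Calls rest on a combination of fold-change classes in drug and vehicle arms, not all shown here.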 Entries without a mark were called inactive. Reagents against one gene are numbered here. Some reagents were tested in more than one well and are listed for each.

gene symbol | pool no. | cell gain with vemurafenib | lactate per cell with vemurafenib
NAA11 (GeneID 84779) | 1 | 0.55 | 1.04
PARVG (GeneID 64098) | 1 | 0.2 | 1.17
AMDHD2 (GeneID 51005) | 1 | 0.46 | 1.7
ZNF709 (GeneID 163051) | 1 | 0.93 | 1.25
UBXN2A (GeneID 165324) | 1 | 0.72 | 0.82
SLC48A1 (GeneID 55652) | 1 | 0.26 | 0.54
RPL7 (GeneID 6129) | 1 | -0.11 | 1.16
CRYBB3 (GeneID 1417) | 1 | 0.48 | 0.65
TRIM62 (GeneID 55223) | 1 | 1 | 0.74
OCLM (retired record) (GeneID 10896) | 1 | 0.81 | 1.31
ZNF138 (GeneID 7697) | 1 | 0.61 | 0.6
PGAP4 (GeneID 84302) | 1 | 0.35 | 1.48
BCL2L12 (GeneID 83596) | 1 | 0.76 | 1.25
GDPGP1 (GeneID 390637) | 1 | 0.92 | 0.8
ARHGAP9 (GeneID 64333) | 1 | 0.22 | 1.75
REEP3 (GeneID 221035) | 1 | 0.55 | 0.63
ZNF638 (GeneID 27332) | 1 | 0.74 | 0.6
OR2AG1 (GeneID 144125) | 1 | 0.64 | 0.8
CDK5R1 (GeneID 8851) | 1 | 0.81 | 1.62
FBXL2 (GeneID 25827) | 1 | 0.88 | 0.58
FTCD (GeneID 10841) | 1 | 0.55 | 0.81
CCDC59 (GeneID 29080) | 1 | 0.15 | 2.74
FDFT1 (GeneID 2222) | 1 | 0.34 | 0.22
SLC51A (GeneID 200931) | 1 | 0.68 | 1.15
TTI2 (GeneID 80185) | 1 | 0.81 | 1.22
CD34 (GeneID 947) | 1 | 0.36 | 0.94
H3C4 (GeneID 8351) | 1 | 0.32 | 2.25
CISD2 (GeneID 493856) | 1 | 1.07 | 0.5
TNFSF15 (GeneID 9966) | 1 | 0.1 | 1.11
ERCC6L2 (GeneID 375748) | 1 | 0.43 | 0.84
ERCC6L2 (GeneID 375748) | 2 | 0.36 | 0.81
DOC2A (GeneID 8448) | 1 | 0.66 | 1.44
LRATD1 (GeneID 151354) | 1 | 1.09 | 1.35
SLCO4A1 (GeneID 28231) | 1 | 0.96 | 1.01
UPRT (GeneID 139596) | 1 | 0.25 | 2.08
CNOT2 (GeneID 4848) | 1 | 0 | 1.31
CALHM1 (GeneID 255022) | 1 | 0.49 | 1.3
PROCA1 (GeneID 147011) | 1 | 0.15 | 0.58
CLASP2 (GeneID 23122) | 1 | 0.68 | 0.54
NLGN3 (GeneID 54413) | 1 | 0.84 | 0.97
ELOVL7 (GeneID 79993) | 1 | 0.66 | 0.84
AP2S1 (GeneID 1175) | 1 | 0.9 | 0.7
INTS3 (GeneID 65123) | 1 | 0.29 | 0.98
PLPP6 (GeneID 403313) | 1 | 0.5 | 1.51
COX6C (GeneID 1345) | 1 | 0.67 | 1.53
WSCD2 (GeneID 9671) | 1 | 1.12 | 0.67
SLC39A12 (GeneID 221074) | 1 | 0.61 | 0.82
UHRF2 (GeneID 115426) | 1 | 0.14 | 1
PBX2 (GeneID 5089) | 1 | 0.81 | 1.18
NIP7 (GeneID 51388) | 1 | 0.32 | 1.11
KLRK1 (GeneID 22914) | 1 | 0.77 | 0.92
CFAP46 (GeneID 54777) | 1 | 0.38 | 0.64
CFAP46 (GeneID 54777) | 2 | 0.67 | 0.78
KLF4 (GeneID 9314) | 1 | 0.55 | 0.98
FAM218A (GeneID 152756) | 1 | 0.81 | 0.73
SLC5A9 (GeneID 200010) | 1 | 0.71 | 0.83
PSME4 (GeneID 23198) | 1 | 0.87 | 1.55
LYST (GeneID 1130) | 1 | 0.62 | 0.86
TSSC4 (GeneID 10078) | 1 | 0.52 | 0.72
NEIL3 (GeneID 55247) | 1 | 0.7 (active) | 0.48
ITGA2B (GeneID 3674) | 1 | 0.47 | 1.26
COL14A1 (GeneID 7373) | 1 | 0.56 | 1.49
PCTP (GeneID 58488) | 1 | 0.96 | 0.82
FAM3B (GeneID 54097) | 1 | 0.36 | 1.84
NDUFA7 (GeneID 4701) | 1 | 0.54 | 0.48

Ordered by “cell gain with vemurafenib” (ascending): 9 of the entries above.
gene symbol | pool no. | cell gain with vemurafenib | lactate per cell with vemurafenib
TNFSF15 (GeneID 9966) | 1 | 0.1 | 1.11
UPRT (GeneID 139596) | 1 | 0.25 | 2.08
H3C4 (GeneID 8351) | 1 | 0.32 | 2.25
ERCC6L2 (GeneID 375748) | 2 | 0.36 | 0.81
ERCC6L2 (GeneID 375748) | 1 | 0.43 | 0.84
DOC2A (GeneID 8448) | 1 | 0.66 | 1.44
SLCO4A1 (GeneID 28231) | 1 | 0.96 | 1.01
CISD2 (GeneID 493856) | 1 | 1.07 | 0.5
LRATD1 (GeneID 151354) | 1 | 1.09 | 1.35

The results go on:
gene symbol | pool no. | cell gain with vemurafenib | lactate per cell with vemurafenib
TMPRSS11E (GeneID 28983) | 1 | 0.47 | 1.3
YWHAH (GeneID 7533) | 1 | 0.36 | 2
MRPS25 (GeneID 64432) | 1 | 0.14 | 1.54
MEP1B (GeneID 4225) | 1 | 0.53 | 0.66
ARL16 (GeneID 339231) | 1 | 0.85 (active) | 0.68
CNTNAP2 (GeneID 26047) | 1 | 0.74 | 0.73
UBE3A (GeneID 7337) | 1 | 0.37 | 0.44
ZFPM2 (GeneID 23414) | 1 | 0.18 (active) | 0.8
CLEC4M (GeneID 10332) | 1 | 0.79 | 0.82
WDSUB1 (GeneID 151525) | 1 | 1.06 | 0.92
RABIF (GeneID 5877) | 1 | 0.93 | 0.62
FAM89A (GeneID 375061) | 1 | 0.13 | 2.15
NARS1 (GeneID 4677) | 1 | 0.54 | 1.03
RGS19 (GeneID 10287) | 1 | 1.01 | 0.74
SDE2 (GeneID 163859) | 1 | 0.58 | 1.27
OXA1L (GeneID 5018) | 1 | 0.65 | 0.93
ADSS2 (GeneID 159) | 1 | 0.83 | 1.06
TMEM132E-DT (GeneID 400591) | 1 | 0.66 | 1.17
ZNRF4 (GeneID 148066) | 1 | 1.01 | 0.75
ZNRF4 (GeneID 148066) | 1 | 0.63 | 1.44
OR52R1 (GeneID 119695) | 1 | 0.52 | 1.61
TECTA (GeneID 7007) | 1 | 0.71 (active) | 0.57
TDRD1 (GeneID 56165) | 1 | 0.67 | 0.9
ANGPT1 (GeneID 284) | 1 | 0.42 | 1.87
AGK (GeneID 55750) | 1 | 0.63 | 0.88
PSPC1 (GeneID 55269) | 1 | 0.34 | 1.12
CENPN (GeneID 55839) | 1 | 0.2 | 0.44
KIR2DL4 (GeneID 3805) | 1 | 0.92 | 1.11
CDK2 (GeneID 1017) | 1 | 0.38 | 0.57
ACP5 (GeneID 54) | 1 | 1.11 | 0.65
GSTM3 (GeneID 2947) | 1 | 0.35 | 1.71
MRPS6 (GeneID 64968) | 1 | 0.73 | 0.84
DOP1A (GeneID 23033) | 1 | 0.44 | 0.68
EIF3J (GeneID 8669) | 1 | 0.1 | 1.08
DENND5A (GeneID 23258) | 1 | 0.51 | 1.21
RFPL4AL1 (GeneID 729974) | 1 | 0.37 | 1.12
SHISA5 (GeneID 51246) | 1 | 0.64 | 0.3
C1QTNF6 (GeneID 114904) | 1 | 1.03 | 1.04
WDR70 (GeneID 55100) | 1 | 0.72 | 0.72
PRDM15 (GeneID 63977) | 1 | 0.52 | 1.72
SNUPN (GeneID 10073) | 1 | 0.57 | 1.47
NDUFA13 (GeneID 51079) | 1 | 0.59 | 1.57
